Data: patent publication US7214663B2, “Tripeptide prodrug compounds” (Medarex, Inc., priority 2001, dated 2007)
At least one peptide structure holds a part that was inferred or is arguable (an end, a ring closure or a residue).

Key:
tumor-bearing nude mice = test: Repeat-dose tolerability / repeat dose MTD in tumor bearing mice; type: in vivo, mouse; settings: Table 11, five doses at five day or 1 week intervals
Description: In one study, one animal in each dose group (n=8) was terminated as a possible drug-related toxicity death late in the study, at Days 58 and 57 in the low and high dose-groups respectively. The safety of the compound was evidenced by little body weight loss in either the high or low dose groups (less than 5% of the initial weight) during the 60-day observation period, in surviving animals (FIG. 14). In the other study, both the high and low dose were well tolerated. Only one animal in the high dose group (n=10) had over 15% of body weight loss at the end of the study (Day 61).
In repeat-dose studies in tumor bearing mice, groups of ten mice were dosed with various amounts of prodrug for a total of five doses at either five day or 1 week intervals. […] Thus, the prodrugs permit a much greater amount of therapeutic agent to be delivered to the body as a whole and thus to the vicinity of the target cell.

[1] = tested on: human colon carcinoma (HT-29); test: HT-29 xenograft efficacy study
Description: Healthy young male nude mice were subcutaneously injected with 5 million of HT-29 cells.

BALL-1 cells (CD10neg) = type: cell-based, human; settings: ratio of IC50
Experimental: In addition to LNCaP, a number of B-cell lines, such as Ramos and Namalwa cells express CD10 (CD10^pos cells).
Suspension cells, BALL-1, Ramos and Namalwa cells were cultured in RPMI media containing 10% heat inactivated fetal calf serum (FCS). On the day of the study, the cells were collected, washed and resuspended at a concentration of 0.5×10^6 cells/ml in RPMI containing 10% FCS. 100 μl of cell suspension was added to 96 well plates. […] Finally 10 μl of a 100 μCi/ml ^3H-thymidine was added per well and the plates were incubated for 24 hours. The plates were harvested using a 96 well Harvester (Packard Instruments) and counted on a Packard Top Count counter. Four parameter logistic curves were fitted to the ^3H-thymidine incorporation as a function of drug molarity using Prism software to determine IC50 values.

[2] = 40 mg/kg every 7 days for 5 doses
[3] = 67 mg/kg every 7 days for 5 doses

SMILES: COc1cccc2c1C(=O)c1c(O)c3c(c(O)c1C2=O)C[C@@](O)(C(=O)CO)C[C@@H]3O[C@H]1C[C@H](NC(=O)[C@H](CC(C)C)NC(=O)[C@H](C)NC(=O)[C@H](CC(C)C)NC(=O)CCNC(=O)CCC(=O)O)[C@H](O)[C@H](C)O1 [Suc-βAla-Leu-Ala-Leu-Dox, reference compound]
- Optimal Efficacy Repeat Dose (mg/kg), value in parentheses (doxorubicin equivalent dose) (tumor-bearing nude mice): 40 mg/kg
- Optimal Efficacy Repeat Dose (tumor-bearing nude mice; tumor bearing mice, 60 days): 71.2 mg/kg

SMILES: COc1cccc2c1C(=O)c1c(O)c3c(c(O)c1C2=O)C[C@@](O)(C(=O)CO)C[C@@H]3O[C@H]1C[C@H](NC(=O)CNC(=O)[C@H](C)NC(=O)[C@H](CC(C)C)NC(=O)CCC(=O)O)[C@H](O)[C@H](C)O1 [Suc-Leu-Ala-Gly-Dox]
- Calculated Mean Day of Survival [1, 2]: 39 days
- Number of Long Term Survivors [1, 2]: 1/7
- Calculated Mean Day of Survival [1, 3]: 41 days
- Number of Long Term Survivors [1, 3]: 3/7
- Ratio Ball-1:Namalwa (BALL-1 cells (CD10neg)): 1
- Ratio Ball-1:Ramos (BALL-1 cells (CD10neg)): 1
